Reference: patent US20160237156A1
No constants are given. Whether binding was seen depends on the method and setting. Some results given as binding are weak or reduced against the parent protein; the word gives no strength. Blank lines part the entries; values can stand above or below the binder they belong to.

By UniProt entry, the sequences of proteins in these tests, tags left out.
UniProt P61073: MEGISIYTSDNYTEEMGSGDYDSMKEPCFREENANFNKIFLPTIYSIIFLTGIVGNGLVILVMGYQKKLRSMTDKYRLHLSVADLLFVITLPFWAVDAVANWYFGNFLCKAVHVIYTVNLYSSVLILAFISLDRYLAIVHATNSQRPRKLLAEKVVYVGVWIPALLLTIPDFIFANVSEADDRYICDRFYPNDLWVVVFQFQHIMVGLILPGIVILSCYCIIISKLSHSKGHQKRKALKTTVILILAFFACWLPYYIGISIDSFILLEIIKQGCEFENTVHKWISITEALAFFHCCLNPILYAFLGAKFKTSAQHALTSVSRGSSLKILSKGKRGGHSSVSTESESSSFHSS

Tests used:
[1] = target: SNAP-tag-CXCR4 (Tag-lite labeled CXCR4 cells, Cisbio Bioassays) (UniProt P61073); assay: Tag-lite HTRF competition with 50 nM fluorescent ligand
[2] = target: SNAP-tag-CXCR4 (Tag-lite labeled CXCR4 cells, Cisbio Bioassays) (UniProt P61073); assay: Tag-lite HTRF competition against 50 nM fluorescent ligand (SDF-1) on Tag-lite labeled CXCR4 cells
[3] = target: SNAP-tag-CXCR4 (Tag-lite labeled CXCR4 cells, Cisbio Bioassays) (UniProt P61073); assay: Tag-lite HTRF competition against 50 nM fluorescently labeled SDF-1 on Tag-lite labeled CXCR4 cells
[4] = target: SNAP-tag-CXCR4 (Tag-lite labeled CXCR4 cells, Cisbio Bioassays) (UniProt P61073); assay: Tag-lite HTRF binding assay
[5] = target: SNAP-tag-CXCR4 (Tag-lite labeled CXCR4 cells, Cisbio Bioassays) (UniProt P61073); assay: Tag-lite HTRF competition
CXCR4 (human) [6] = target: CXCR4 (human) (UniProt P61073); assay: flow cytometry on Jurkat cells and CXCR4 transfected CHO cells
CXCR4 (human) [7] = target: CXCR4 (human) (UniProt P61073); assay: flow cytometry, Alexa Fluor 647 goat anti-human IgG (axis: 2nd Ab APC)

binding [1]: binds
binding [2]: binds
binding [3]: binds
B1: BLV1H12-beta BCCX2 HC 4 IgG (antibody, V domains shown)
VH: ASGFSLSDKAVGWVRQAPGKALEWLGSIDETKKYQSYRKCRGGRRWCYQKSYTYNYETGYNPGLKSRLSITKDNSKSQVSLSVSSVTTEDSATYYCTSVHQGGGGSWHVDVWGQGLLVTVSS
VL: QAVLNQPSSVSGSLGQRVSITCSGSSSNVGNGYVSWYQLIPGSAPRTLIYGDTSRASGVPDRFSGSRSGNTATLTISSLQAEDEADYFCASAEDSSSNAVFGSGTTLTVLG

binding [4]: binds
binding [3]: binds
B2: BLV1H12-beta BCCX2 HC 2 IgG (antibody, V domains shown)
VH: QVQLRESGPSLVKPSQTLSLTCTASGFSLSDKAVGWVRQAPGKALEWLGSIDTGGNTGYNPGLKSRLSITKDNSKSQVSLSVSSVTTEDSATYYCTSVHQETKKYQSYRKCRGPRRWCYQKSYTYNYEWHVDVWGQGLLVTVSS
VL: B1 VL

binding [5]: binds
binding [4]: binds
binding [3]: binds
B3: BLV1H12-beta BCCX2 HC 3 IgG (antibody, V domains shown)
VH: QVQLRESGPSLVKPSQTLSLTCTASGFSLSDKAVGWVRQAPGKALEWLGSIDTGGNTGYNPGLKSRLSITKDNSKSQVSLSVSSVTTEDSATYYCTSVHQETKKYQSYRKCRGGNGRRWCYQKSYTYNYEWHVDVWGQGLLVTVSS
VL: B1 VL

binding (CXCR4 (human) [6]): no binding
binding (CXCR4 (human) [7]): no binding (tested: 1 ug/ml)
B4: BLV1H12 (control antibody) (antibody)
VH: QVQLRESGPSLVKPSQTLSLTCTASGFSLSDKAVGWVRQAPGKALEWLGSIDTGGNTGYNPGLKSRLSITKDNSKSQVSLSVSSVTTEDSATYYCTSVHQETKKYQSCPDGYRERSDCSNRPACGTSDCCRVSVFGNCLTTLPVSYSYTYNYEWHVDVWGQGLLVTVSS
light: QAVLNQPSSVSGSLGQRVSITCSGSSSNVGNGYVSWYQLIPGSAPRTLIYGDTSRASGVPDRFSGSRSGNTATLTISSLQAEDEADYFCASAEDSSSNAVFGSGTTLTVLGQPKSPPSVTLFPPSTEELNGNKATLVCLISDFYPGSVTVVWKADGSTITRNVETTRASKQSNSKYAASSYLSLTSSDWKSKGSYSCEVTHEGSTVTKTVKPSECS
